Measurements published in patent US7015013B2, “Method for localized staining of an intact corneal tissue surface” (3D Vision Systems, LLC, priority 2003, dated 2006).

What was measured:
human dermis = experiment: Localized ring staining of human dermis with concentric-circle device; settings: 50 mg/mL in 0.2M disodium phosphate, pH 9.0, 2 minutes
Text: The device for applying the sulfonic acid dye or stain to the corneal surface is composed of a series of concentric circles. The center of the concentric circles is solid and is seated on the corneal apex, preventing exposure of the central cornea to the sulfonic acid dye or stain. An intermediate concentric circle is open to the surface of the cornea allowing exposure of this surface to the sulfonic acid dye or stain. The outer circle is also solid and seated firmly on the corneal surface preventing exposure of the corneal surface to the sulfonic acid dye or stain. The width of the intermediate concentric circle can be adjusted to allow exposure of the corneal surface to predetermined widths of sulfonic acid dye or stain. Thus, a ring of predetermined width can be formed on the corneal surface for specific therapeutic applications. In one design, a port is fabricated fitting the end of a 1.0–2.5 cc syringe. Dye or stain solution is injected into the open ring through this delivery port to treat the exposed tissue surface. The dye or strain is also removed using this port and rinse solutions applied to remove unbound dye or stain. The extent of tissue staining is dependent on the concentration of the dye or stain, exposure time, and the pH of the exposed tissue. Other configurations for delivery devices can be fabricated to stain or dye predetermined regions of the cornea surface for Cosmesis. For example, a dry sponge, pre-dosed with an appropriate amount of black stain or dye is fabricated to specific dimensions such that when the dry, pre-dosed sponge is wet, the dye is delivered to the exposed tissue surface. The dry, pre-dosed sponge is fabricated in the form of a thin ring. The ring is then placed in a delivery device. Fluid is then applied to the ring causing it to wet and instantly deliver the pre-dosed dye or stain to the exposed tissue surface to form a black ring in the same dimensions as the delivery ring. The delivery ring may be fabricated in different dimensions, thickness and diameter to apply the desired stain dimensions. […]

cat cornea = experiment: Staining of corneal surface of a preserved cat eye
Experimental: A preserved cat eye, with intact cornea, vitreous and scleral tissue, was removed from the preservation solution and placed in a bath of 0.2M disodium phosphate, pH 9.2, for 2 minutes. The eye was then removed from the bath and placed in a holding device allowing the cornea to be exposed for treatment. Reactive Black 5 dissolved in 0.2M disodium phosphate, pH 9.2, was applied to the entire exposed surface of the cat cornea. After 1 minute, the cornea was thoroughly washed with 0.1M phosphate buffer, pH 7.2, to remove unbound dye. […] A thin ring was etched into the corneal surface using a scalpel blade. Reactive Black 5 solution was again applied to the corneal surface. After 1 minute, the cornea was thoroughly washed with 0.1M phosphate buffer, pH 7.2 until the wash solution appeared clear and colorless. […] Similar techniques will be useful for cosmesis to cover corneal scars or to create a pupil in aniridia. In addition, a corneal ring can be formed on the corneal surface to improve depth of focus for certain refractive errors and to restrict light scatter in certain corneal opacities. Furthermore, a similar corneal ring has potential applications in restricting orientation of light rays striking the macular in age related Macular Degeneration.

Nc1c(N=Nc2ccc(S(=O)(=O)CCOS(=O)(=O)[O-])cc2)c(S(=O)(=O)[O-])cc2cc(S(=O)(=O)[O-])c(N=Nc3ccc(S(=O)(=O)CCOS(=O)(=O)[O-])cc3)c(O)c12.[Na+].[Na+].[Na+].[Na+] [Reactive Black 5]
bleeding of dye into unexposed tissue (human dermis): Minimal bleeding | width of stained ring (human dermis): approximately 1.5 mm | stain formed on dermal tissue surface (human dermis; exposed concentric ring): thin deep blue-black ring | appearance of corneal surface after etching a thin ring with scalpel blade and restaining (cat cornea; dye applied again for 1 minute, washed with 0.1M phosphate buffer, pH 7.2): thin ring of deep blue-black color | appearance of intact cornea surface after staining (cat cornea; dye in 0.2M disodium phosphate, pH 9.2, 1 minute, entire exposed cornea, not etched): faintly blue-black | appearance of scleral ring surrounding the eye where dye leaked (cat cornea; dye in 0.2M disodium phosphate, pH 9.2, sclera): deep blue-black
